# The supplement of paper PMC8728848
# The list shows a part of the results.
# B1: SspB C123 (Streptococcus gordonii), Q54186 (protein)
# chain: MAHFHYSSLLAQPQINKEIKNEDGVDIDRTLVAKQSIGKFELKTEALTAGRPKTTSFVLVDPLPTGYKFDLDATKAASTGFDTTYDEASHTVTFKATDETLATYNADLTKPVETLHPTVVGRVLNDGATYTNNFTLTVNDAYGIKSNVVRVTTPGKPNDPDNPNNNYIKPTKVNKNKEGLNIDGKEVLAGSTNYYELTWDLDQYKGDKSSKEAIQNGFYYVDDYPEEALDVRPDLVKVADEKGNQVSGVSVQQYDSLEAAPKKVQDLLKKANITVKGAFQLFSADNPEEFYKQYVSTGTSLVITDPMTVKSEFGKTGGKYENKAYQIDFGNGYATEVVVNNVPKITPKKDVTVSLDPTSENLDGQTVQLYQTFNYRLIGGFIPQNHSEELEDYSFVDDYDQAGDQYTGNYKTFSSLNLTMKDGSVIKAGTDLTSQTTAETDATNGIVTVRFKEDFLQKISLDSPFQAETYLQMRRIAIGTFENTYVNTVNKVAYASAAALEHHHHHH
# Columns and labels:
# Assay in all cases: glycan array binding signal (z-score within array); higher = stronger binding
# Settings in all cases: glycan notation: IUPAC condensed, linker removed
# [1] = molecular target: Fuc(a1-2)Gal(b1-4)[Fuc(a1-3)]GlcNAc
# In short: (§1)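 Glycan array data came from 3228 arrays in the Consortium for Functional Glycomics database, and only arrays with an available protein sequence were kept. Glycan names were put into IUPAC-condensed notation, and columns mapping to the same glycan were averaged. The binding signal is a within-array Z-score, averaged across arrays of one protein sequence run at different concentrations or buffers and across linkers. A negative Z-score can be read as non-binding.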
# [2] = molecular target: Fuc(a1-2)Gal(b1-4)[Fuc(a1-3)]GlcNAc(b1-2)Man(a1-3)[Fuc(a1-2)Gal(b1-4)[Fuc(a1-3)]GlcNAc(b1-2)Man(a1-6)]Man(b1-4)GlcNAc(b1-4)[Fuc(a1-6)]GlcNAc
# In short: as §1
# [3] = molecular target: Fuc(a1-2)Gal(b1-4)[Fuc(a1-3)]GlcNAc(b1-2)[Fuc(a1-2)Gal(b1-4)[Fuc(a1-3)]GlcNAc(b1-4)]Man(a1-3)[Fuc(a1-2)Gal(b1-4)[Fuc(a1-3)]GlcNAc(b1-2)Man(a1-6)]Man(b1-4)GlcNAc(b1-4)GlcNAc
# In short: as §1
# [4] = molecular target: Fuc(a1-2)Gal(b1-4)[Fuc(a1-3)]GlcNAc(b1-3)Gal(b1-4)[Fuc(a1-3)]GlcNAc
# In short: as §1
# [5] = molecular target: Fuc(a1-2)Gal(b1-4)[Fuc(a1-3)]GlcNAc(b1-3)Gal(b1-4)[Fuc(a1-3)]GlcNAc(b1-3)Gal(b1-4)[Fuc(a1-3)]GlcNAc
# In short: as §1
# [6] = molecular target: Fuc(a1-2)Gal(b1-4)[Fuc(a1-3)]GlcNAc(b1-3)GalNAc
# In short: as §1
# [7] = molecular target: Fuc(a1-2)Gal(b1-4)[Fuc(a1-3)]GlcNAc(b1-3)[Neu5Ac(a2-6)Gal(b1-4)GlcNAc(b1-6)]Gal(b1-4)Glc
# In short: as §1
# [8] = molecular target: Fuc(a1-2)Gal3S(b1-4)GlcNAc
# In short: as §1
# [9] = molecular target: Fuc(a1-2)Gal6S(b1-3)GlcNAc
# In short: as §1
# [10] = molecular target: Fuc(a1-2)Gal6S(b1-3)GlcNAc6S
# In short: as §1
# Fuc(a1-2)Gal6S(b1-4)Glc = molecular target: Fuc(a1-2)Gal6S(b1-4)Glc
# In short: as §1
# [11] = molecular target: Fuc(a1-2)Gal6S(b1-4)Glc6S
# In short: as §1
# Fuc(a1-2)[Gal(a1-3)]Gal = molecular target: Fuc(a1-2)[Gal(a1-3)]Gal
# In short: as §1
# [12] = molecular target: Fuc(a1-2)[Gal(a1-3)]Gal(b1-3)GalNAc
# In short: as §1
# [13] = molecular target: Fuc(a1-2)[Gal(a1-3)]Gal(b1-3)GalNAc(b1-3)Gal(a1-4)Gal(b1-4)Glc
# In short: as §1
# [14] = molecular target: Fuc(a1-2)[Gal(a1-3)]Gal(b1-3)GlcNAc
# In short: as §1
# [15] = molecular target: Fuc(a1-2)[Gal(a1-3)]Gal(b1-3)GlcNAc(b1-2)Man(a1-3)[Fuc(a1-2)[Gal(a1-3)]Gal(b1-3)GlcNAc(b1-2)Man(a1-6)]Man(b1-4)GlcNAc(b1-4)GlcNAc
# In short: as §1
# [16] = molecular target: Fuc(a1-2)[Gal(a1-3)]Gal(b1-3)GlcNAc(b1-2)Man(a1-3)[Fuc(a1-2)[Gal(a1-3)]Gal(b1-3)GlcNAc(b1-2)Man(a1-6)]Man(b1-4)GlcNAc(b1-4)[Fuc(a1-6)]GlcNAc
# In short: as §1
# [17] = molecular target: Fuc(a1-2)[Gal(a1-3)]Gal(b1-3)GlcNAc(b1-3)GalNAc
# In short: as §1
# [18] = molecular target: Fuc(a1-2)[Gal(a1-3)]Gal(b1-3)GlcNAc(b1-6)GalNAc
# In short: as §1
# [19] = molecular target: Fuc(a1-2)[Gal(a1-3)]Gal(b1-4)Glc
# In short: as §1
# [20] = molecular target: Fuc(a1-2)[Gal(a1-3)]Gal(b1-4)GlcNAc
# In short: as §1
# [21] = molecular target: Fuc(a1-2)[Gal(a1-3)]Gal(b1-4)GlcNAc(b1-2)Man
# In short: as §1
# [22] = molecular target: Fuc(a1-2)[Gal(a1-3)]Gal(b1-4)GlcNAc(b1-2)Man(a1-3)[Fuc(a1-2)[Gal(a1-3)]Gal(b1-4)GlcNAc(b1-2)Man(a1-6)]Man(b1-4)GlcNAc(b1-4)GlcNAc
# In short: as §1
# [23] = molecular target: Fuc(a1-2)[Gal(a1-3)]Gal(b1-4)GlcNAc(b1-2)Man(a1-3)[Fuc(a1-2)[Gal(a1-3)]Gal(b1-4)GlcNAc(b1-2)Man(a1-6)]Man(b1-4)GlcNAc(b1-4)[Fuc(a1-6)]GlcNAc
# In short: as §1
# [24] = molecular target: Fuc(a1-2)[Gal(a1-3)]Gal(b1-4)GlcNAc(b1-3)GalNAc
# In short: as §1
# [25] = molecular target: Fuc(a1-2)[Gal(a1-3)]Gal(b1-4)GlcNAc(b1-6)GalNAc
# In short: as §1
# [26] = molecular target: Fuc(a1-2)[Gal(a1-3)]Gal(b1-4)[Fuc(a1-3)]Glc
# In short: as §1
# [27] = molecular target: Fuc(a1-2)[Gal(a1-3)]Gal(b1-4)[Fuc(a1-3)]GlcNAc
# In short: as §1
# [28] = molecular target: Fuc(a1-2)[Gal(a1-3)]Gal(b1-4)[Fuc(a1-3)]GlcNAc(b1-3)GalNAc
# In short: as §1
# [29] = molecular target: Fuc(a1-2)[Gal(a1-4)]Gal(b1-4)GlcNAc
# In short: as §1
# [30] = molecular target: Fuc(a1-2)[GalNAc(a1-3)]Gal
# In short: as §1
# [31] = molecular target: Fuc(a1-2)[GalNAc(a1-3)]Gal(b1-3)GalNAc(a1-3)[Fuc(a1-2)]Gal(b1-4)GlcNAc
# In short: as §1
# [32] = molecular target: Fuc(a1-2)[GalNAc(a1-3)]Gal(b1-3)GalNAc(b1-3)Gal(a1-4)Gal(b1-4)Glc
# In short: as §1
# [33] = molecular target: Fuc(a1-2)[GalNAc(a1-3)]Gal(b1-3)GlcNAc
# In short: as §1
# [34] = molecular target: Fuc(a1-2)[GalNAc(a1-3)]Gal(b1-3)GlcNAc(b1-2)Man(a1-3)[Fuc(a1-2)[GalNAc(a1-3)]Gal(b1-3)GlcNAc(b1-2)Man(a1-6)]Man(b1-4)GlcNAc(b1-4)GlcNAc
# In short: as §1
# [35] = molecular target: Fuc(a1-2)[GalNAc(a1-3)]Gal(b1-3)GlcNAc(b1-2)Man(a1-3)[Fuc(a1-2)[GalNAc(a1-3)]Gal(b1-3)GlcNAc(b1-2)Man(a1-6)]Man(b1-4)GlcNAc(b1-4)[Fuc(a1-6)]GlcNAc
# In short: as §1
# [36] = molecular target: Fuc(a1-2)[GalNAc(a1-3)]Gal(b1-3)GlcNAc(b1-3)GalNAc
# In short: as §1
binder,measurement,setting,value
B1,glycan array binding signal (z-score),[1],-0.903
same,glycan array binding signal (z-score),[2],0.993
same,glycan array binding signal (z-score),[3],1.54
same,glycan array binding signal (z-score),[4],-0.699
same,glycan array binding signal (z-score),[5],-0.604
same,glycan array binding signal (z-score),[6],3.99
same,glycan array binding signal (z-score),[7],0.225
same,glycan array binding signal (z-score),[8],-1.02
same,glycan array binding signal (z-score),[9],-0.547
same,glycan array binding signal (z-score),[10],0.031
same,glycan array binding signal (z-score),Fuc(a1-2)Gal6S(b1-4)Glc,-0.489
same,glycan array binding signal (z-score),[11],-0.576
same,glycan array binding signal (z-score),Fuc(a1-2)[Gal(a1-3)]Gal,-0.352
same,glycan array binding signal (z-score),[12],-0.114
same,glycan array binding signal (z-score),[13],-1.04
same,glycan array binding signal (z-score),[14],-0.253
same,glycan array binding signal (z-score),[15],0.387
same,glycan array binding signal (z-score),[16],1.38
same,glycan array binding signal (z-score),[17],-0.239
same,glycan array binding signal (z-score),[18],-0.18
same,glycan array binding signal (z-score),[19],-0.349
same,glycan array binding signal (z-score),[20],-0.371
same,glycan array binding signal (z-score),[21],-1.81
same,glycan array binding signal (z-score),[22],1.42
same,glycan array binding signal (z-score),[23],0.612
same,glycan array binding signal (z-score),[24],-0.581
same,glycan array binding signal (z-score),[25],-0.149
same,glycan array binding signal (z-score),[26],-0.277
same,glycan array binding signal (z-score),[27],-0.222
same,glycan array binding signal (z-score),[28],0.504
same,glycan array binding signal (z-score),[29],2.16
same,glycan array binding signal (z-score),[30],-0.539
same,glycan array binding signal (z-score),[31],-1.55
same,glycan array binding signal (z-score),[32],0.965
same,glycan array binding signal (z-score),[33],0.229
same,glycan array binding signal (z-score),[34],-0.312
same,glycan array binding signal (z-score),[35],-0.231
same,glycan array binding signal (z-score),[36],-0.962

# For reference, part of the list above.
binder,measurement,setting,value
B1,glycan array binding signal (z-score),[22],1.42
same,glycan array binding signal (z-score),[23],0.612
same,glycan array binding signal (z-score),[24],-0.581
